# Assay results taken from US20110104143A1.
# The chains behind the UniProt entries cited, without tags or fusion partners. Where a name states a change or a piece, a line headed by the entry shows the natural chain unless it says otherwise. Residues count along the entry.
# UniProt O14763, residues 56-440: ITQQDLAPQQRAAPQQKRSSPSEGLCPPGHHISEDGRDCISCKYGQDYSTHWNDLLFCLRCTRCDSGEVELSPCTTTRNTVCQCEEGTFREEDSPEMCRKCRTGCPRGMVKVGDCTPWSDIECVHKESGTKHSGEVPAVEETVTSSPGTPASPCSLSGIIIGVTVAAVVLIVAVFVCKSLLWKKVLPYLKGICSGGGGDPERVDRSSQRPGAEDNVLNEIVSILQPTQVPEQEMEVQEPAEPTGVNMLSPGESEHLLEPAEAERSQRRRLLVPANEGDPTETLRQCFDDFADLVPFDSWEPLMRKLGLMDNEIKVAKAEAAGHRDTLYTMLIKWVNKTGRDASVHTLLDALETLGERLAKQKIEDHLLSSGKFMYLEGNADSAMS
# UniProt O00571: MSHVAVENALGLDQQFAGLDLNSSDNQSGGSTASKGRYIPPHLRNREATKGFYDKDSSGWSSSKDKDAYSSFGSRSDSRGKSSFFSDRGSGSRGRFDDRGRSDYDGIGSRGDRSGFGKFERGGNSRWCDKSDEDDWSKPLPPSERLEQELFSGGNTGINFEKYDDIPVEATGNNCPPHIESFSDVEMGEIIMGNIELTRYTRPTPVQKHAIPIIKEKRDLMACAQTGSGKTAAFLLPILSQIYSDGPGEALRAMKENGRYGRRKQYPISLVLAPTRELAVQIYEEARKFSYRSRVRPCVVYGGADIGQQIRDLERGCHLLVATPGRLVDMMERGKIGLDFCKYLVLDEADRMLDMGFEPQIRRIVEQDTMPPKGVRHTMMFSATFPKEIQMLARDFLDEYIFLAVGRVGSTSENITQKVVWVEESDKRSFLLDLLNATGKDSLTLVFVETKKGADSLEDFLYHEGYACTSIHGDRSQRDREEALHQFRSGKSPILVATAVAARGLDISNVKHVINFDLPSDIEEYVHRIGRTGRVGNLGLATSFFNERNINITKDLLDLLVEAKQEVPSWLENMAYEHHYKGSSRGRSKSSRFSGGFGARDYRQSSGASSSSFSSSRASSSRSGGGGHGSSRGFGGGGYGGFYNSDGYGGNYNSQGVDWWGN
# UniProt Q13158: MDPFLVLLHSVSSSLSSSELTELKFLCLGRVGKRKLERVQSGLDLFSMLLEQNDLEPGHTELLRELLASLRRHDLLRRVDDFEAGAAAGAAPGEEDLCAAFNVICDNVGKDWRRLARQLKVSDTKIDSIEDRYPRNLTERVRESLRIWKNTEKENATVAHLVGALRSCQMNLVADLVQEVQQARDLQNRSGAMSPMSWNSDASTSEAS
# Results are given in words; binding and its absence hold for the method and conditions named. For some of these results: In cells and extracts the contact can be indirect. Some results given as binding are weak or reduced against the parent protein; the word gives no strength.
# What was measured:
# [1] = target: human DR5 (full-length) (human) (UniProt O14763); assay: DR5 co-IP, pancreatic cancer cells
# [2] = target: human DR5 (full-length) (human) (UniProt O14763); assay: DR5 co-immunoprecipitation and sandwich ELISA of total cell lysate
# [3] = target: human DR5 (full-length) (human) (UniProt O14763); assay: co-immunoprecipitation and Western blot with mouse anti-DDX3 monoclonal antibody
# [4] = target: human DR5 (full-length) (human) (UniProt O14763); assay: DR5 immunoprecipitation with 2B4, immunoblot and sandwich ELISA, MDA231 and UL-3C cells
# [5] = target: human DR5 (full-length) (human) (UniProt O14763); assay: co-immunoprecipitation using TRA-8, transfected HEK293A cells
# [6] = target: human DR5 (full-length) (human) (UniProt O14763); assay: co-immunoprecipitation and Western blot with anti-6-His antibody, transfected MDA231 cells
# [7] = target: human DR5 (full-length) (human) (UniProt O14763); assay: co-immunoprecipitation with TRA-8 and Western blot with anti-6-His antibody, co-transfected 3T3 cells
# [8] = target: human DR5 (full-length) (human) (UniProt O14763); assay: Western blots of co-immunoprecipitates (FIG. 5A)
# [9] = target: human DR5 (full-length) (human) (UniProt O14763); assay: DR5 co-immunoprecipitation and Western blot (FIG. 5A)
# [10] = target: human DR5 (full-length) (human) (UniProt O14763); assay: DR5 co-IP and Western blot
substance,measurement,setting,value
"DDX3 (endogenous, full-length human DDX3 in tumor cell lysates) (from UniProt O00571 1-662)",binding,[1],binds
same,binding,[2],binds
same,binding,[3],binds
same,binding,[4],binds
His-tagged full-length DDX3 (amino acids 1-662) (from UniProt O00571 1-662),binding,[5],binds
same,binding,[6],binds
same,binding,[7],binds
FADD (from UniProt Q13158 1-208),binding,[8],binds
same,binding,[9],binds
DDX3ΔCARD (DDX3Δ151-662) (from UniProt O00571 151-662),binding,[10],binds
